The list shows only some results of the screen, not a fair sample: it is rich in T/C values a quarter to a half above the control, in often repeated tests (any T/C) and in doses without a T/C. Further doses and runs are listed elsewhere. T/C is the treated group as % of the vehicle group. Some entries give survivors of the animals treated and no T/C: the source files T/C as zero there, which appears to mark a toxic dose or a test without result, not a measured value. Some doses without a T/C left all or most animals alive at the check, yet need not have been tolerated: the source hardly ever lists a survival T/C far under the control, and the zero likely stands for such cases as well. Counts of survivors are from the toxicity check (mostly the fifth day) where no day follows; animals may have died later. Schedule codes are those of the source, read here as Q, the interval in days (D) or hours (H), X, the number of doses. Some entries were tested several times; their values stand side by side, smallest first. For survival time, this PubChem deposit counts one and a half times the control or more as active, and values a quarter to a half above the control carry no call in these data; other NCI protocols may use other cut-offs.

The assay relates to L1210 leukemia ip in BDF1 mice, survival T/C. The assay is described as follows: NCI In Vivo Anticancer Drug Screen. Data for tumor model L1210 Leukemia (intraperitoneal) in B6D2F1 (BDF1) mice. Particulars: T/C endpoint: mean survival time, higher T/C = longer survival.
The mark [1] stands for this setting: dose: 100.0 mg/kg/injection, schedule: Q04DX003 (ip), vehicle: Klucel (hydroxypropylcellulose) (HPC).
The mark [2] stands for this setting: dose: 200.0 mg/kg/injection, schedule: Q04DX003 (ip), vehicle: Klucel (hydroxypropylcellulose) (HPC).
[3] abbreviates: dose: 400.0 mg/kg/injection, schedule: Q04DX003 (ip), vehicle: Klucel (hydroxypropylcellulose) (HPC).
[4] abbreviates: dose: 100.0 mg/kg/injection, schedule: Q04DX003 (ip), vehicle: saline with Tween-80.
Setting [5] is: dose: 200.0 mg/kg/injection, schedule: Q04DX003 (ip), vehicle: saline with Tween-80.
Where [6] appears, read: dose: 400.0 mg/kg/injection, schedule: Q04DX003 (ip), vehicle: saline with Tween-80.
The mark [7] stands for this setting: dose: 400.0 mg/kg/injection, schedule: Q04DX003 (ip), vehicle: saline.
The mark [8] stands for this setting: dose: 50.0 mg/kg/injection, schedule: Q01DX009 (ip), vehicle: Klucel (hydroxypropylcellulose) (HPC).

In the case of `CCOC(=O)c1cnc(SC)nc1Nc1c(Br)cc(Br)cc1Br`, the survivor count is, setting by setting: under setting [1], 0 of 6; under setting [2], 1 of 6; under setting [3], 0 of 6.
As for `CSc1ncnc2c1ncn2NCC1OC(C)OCC1O` (stereo unspecified), the survivor count (dose: 400.0 mg/kg/injection, schedule: Q01DX001 (ip), vehicle: Klucel (hydroxypropylcellulose) (HPC)) is recorded as 0 of 6.
For the compound `CCCC[As](=O)(O)CCO`, the survivor count by setting is: under setting [4], 0 of 6 and 1 of 6; under setting [5], 0 of 6; under setting [6], 0 of 6.
Regarding `Cc1nc2cnn(C)c2nc1C`, the survivor count is recorded as 6 of 6 (dose: 100.0 mg/kg/injection, schedule: Q01DX009 (ip), vehicle: saline); 6 of 6 (dose: 200.0 mg/kg/injection, schedule: Q01DX009 (ip), vehicle: saline); 4 of 6 (dose: 400.0 mg/kg/injection, schedule: Q01DX009 (ip), vehicle: saline); 1 of 6 under setting [7].
Consider `Cc1cccnc1C`, for which the T/C (dose: 20.0 mg/kg/injection, schedule: Q04DX003 (ip), vehicle: saline) is 131 % of control. Further, the survivor count is listed as 6 of 6 (dose: 200.0 mg/kg/injection, schedule: Q04DX003 (ip), vehicle: saline) and 1 of 6 under setting [7].
For `CN(C)C=NC1CCC(C(C)(C)C)CC1` (stereo unspecified), the survivor count by setting is: under setting [8], 3 of 6; under setting [1], 0 of 6; under setting [2], 0 of 6; under setting [3], 0 of 6.
For the compound `C=CCC[P+](c1ccccc1)(c1ccccc1)c1ccccc1`, the T/C (dose: 25.0 mg/kg/injection, schedule: Q04DX003 (ip), vehicle: Klucel (hydroxypropylcellulose) (HPC)) was 125 % of control. Further, the survivor count by setting is: under setting [1], 1 of 6; under setting [2], 0 of 6; under setting [3], 0 of 6.
Take `N/C(=N\Cl)C(Cl)(Cl)Cl`: the survivor count is, setting by setting: under setting [4], 5 of 6; under setting [5], 0 of 6; under setting [6], 0 of 6.
`NC(=S)N=Nc1c(O)n(C2OC(CO)C(O)C(O)C2O)c2ccccc12` (stereo unspecified): where the note is “dose: 200.0 mg/kg/injection, schedule: Q01DX005 (ip), vehicle: saline”, the survivor count was 3 of 3.
On to `CCC[CH2][Sn]1([CH2]CCC)[O]OC(c2ccc(C)cc2)[O]1` (stereo unspecified), for which the survivor count is recorded as 0 of 3 under setting [8]; 3 of 3 (dose: 50.0 mg/kg/injection, schedule: Q04DX002 (ip), vehicle: Klucel (hydroxypropylcellulose) (HPC)); 0 of 3 (dose: 100.0 mg/kg/injection, schedule: Q04DX002 (ip), vehicle: Klucel (hydroxypropylcellulose) (HPC)); 0 of 3 (dose: 200.0 mg/kg/injection, schedule: Q04DX002 (ip), vehicle: Klucel (hydroxypropylcellulose) (HPC)); 0 of 3 (dose: 400.0 mg/kg/injection, schedule: Q04DX002 (ip), vehicle: Klucel (hydroxypropylcellulose) (HPC)).

These data come from PubChem BioAssay AID248 (DTP/NCI, 2004).
